According to PubChem BioAssay AID2685 (National Center for Advancing Translational Sciences (NCATS), 2010):
The other results are listed elsewhere or left out. Further columns of the screen follow, without active or inactive calls. Compounds called inactive in the main read-out are mostly missing here. Potencies come from curve fits of mixed quality, noted in brackets.

Test: qHTS Assay for Lipid Storage Modulators in Drosophila S3 Cells;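 for cell number change: cells counted by Cell Tracker Red CMTPX staining in the red channel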
Settings: BODIPY lipid droplet fluorescence, 18-24 h; for cell number change: measured here: cell count max response, cells fed with added oleic acid
Outline: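 Drosophila S3 cells got compounds at several concentrations plus oleic acid (400 uM solution). Laser-scanning cytometry with 488 nm excitation read lipid droplets at 500-530 nm and cells at 575-640 nm. Percent activity was relative to 20 uM Triacsin C.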

[1] = measured here: cell number channel AC50, cells fed with added oleic acid
[2] = measured here: lipid fluorescence (Fed channel) AC50, cells fed with added oleic acid

For COc1ccc2[nH]cc(C3N4CC5(C)CN3CC(C)(C4)C5=O)c2c1 (stereo not given), the AC50 [1] was 0.116 µM [falling, full curve, poor fit].
For CCCN(CCO)C1CCN(CCc2ccccc2)CC1, the cell number change was -21% and the AC50 [2] was 6.51 µM [rising, single point].
O=C(CCl)N=c1sccn1Cc1ccc(Cl)cc1Cl gave a cell number change of -12.3%.
For CCOc1ccccc1C(=O)N1CCCCC1C (stereo not given), the cell number change was -5.61% and the AC50 [2] was 23.1 µM [falling, partial curve, poor fit].
In the case of CCOc1cccc2cc(C(=O)NCc3ccc(C)cc3)c(=N)oc12, the cell number change was -18.3% and the AC50 [2] was 8.91 µM [falling, partial curve, poor fit].
For Cc1cccc(OCC(=O)Nc2ccc(N3CCN(S(C)(=O)=O)CC3)cc2)c1C, the cell number change was 7.66%.
With O=C(NCc1nc(-c2ccccc2)no1)c1cccs1 the cell number change was -17.3% and the AC50 [2] was 25.9 µM [rising, single point].
With CC(CN1CCN(C)CC1)OC(=O)c1ccccc1Cl (stereo not given) the cell number change was -14.9% and the AC50 [2] was 4.11 µM [falling, full curve, poor fit].
With O=C1c2ccccc2NC2(CCCCC2)N1N=C1CCCCC1 the cell number change was -2.73% and the AC50 [2] was 29.1 µM [falling, single point].
With Cn1cc(CCC(=O)N2CCCC(C(=O)c3ccc(C(C)(C)C)cc3)C2)cn1 (stereo not given) the cell number change was -31% and the AC50 [1] was 18.4 µM [falling, partial curve, poor fit].
For Cn1c(CNC(=O)c2ccc(Cl)cc2)nnc1SCC(=O)NC1CCCC1, the cell number change was -1.32% and the AC50 [2] was 5.62 µM [rising, single point].
Cc1ccc(C(=O)NC(C)c2ccccc2)cc1Br (stereo not given) gave a cell number change of -2.66%.
With COc1ccc(C(C(=O)NC2CCCC2)N(C(=O)c2ccoc2C)c2cc(C)cc(C)c2)cc1 (stereo not given) the cell number change was -2.96% and the AC50 [2] was 0.058 µM [falling, full curve, poor fit].
In the case of O=C(c1cccc(C(F)(F)F)c1)N1CCC(O)(CS(=O)(=O)Cc2ccc(Cl)cc2)CC1, the AC50 [2] was 7.31 µM [falling, single point].
For C=CCSc1nc2sc(C)c(C)c2c(=O)n1N, the cell number change was 37.7%, the AC50 [1] was 11.6 µM [rising, partial curve] and the AC50 [2] was 14.6 µM [rising, partial curve].
With COc1ccc(CCN2C(=O)CC(Cc3ccccc3)C2=O)cc1OC (stereo not given) the cell number change was 36.2%, the AC50 [1] was 7.31 µM [rising, partial curve, poor fit] and the AC50 [2] was 4.11 µM [rising, full curve, poor fit].
CC(C)Oc1ccc(OCCCN2CCCCCC2)cc1 showed a cell number change of 16.9%.
In the case of CC1=CC(=C2C(=O)c3ccccc3C2=O)C=C(C)N1Cc1ccco1, the cell number change was -16.9% and the AC50 [2] was 29.1 µM [rising, single point].
In the case of Cc1ccc(C)c(NS(=O)(=O)c2ccc3c(c2)Cc2cc(S(=O)(=O)Nc4cc(C)ccc4C)ccc2-3)c1, the cell number change was 8.8%.
In the case of CC1=CC(C)(C)N(S(=O)(=O)c2ccc(F)cc2)c2ccc(C)cc21, the AC50 [1] was 6.51 µM [falling, single point] and the AC50 [2] was 6.51 µM [falling, single point].
COc1cc(C(=O)N/N=C/c2sc(N3CCOCC3)nc2-c2ccccc2)cc(OC)c1OC showed a cell number change of -11.6%.
With C=CCN(C(=O)CNC(=O)c1cccs1)C(C(=O)NC1CCCCC1)c1cccnc1 (stereo not given) the AC50 [1] was 4.11 µM [rising, partial curve, poor fit].
For O=C(N/N=C/c1ccccc1O)c1ccc2c(c1)OCO2, the cell number change was 0.118% and the AC50 [2] was 29.1 µM [falling, single point].
With CC(=C/c1ccccc1)/C=N/Nc1nc(N2CCCCC2)nc(N2CCCCC2)n1 the cell number change was 2.62% and the AC50 [1] was 2.06 µM [falling, single point].
In the case of CC1CCN(c2ncnc3ccccc23)CC1, the cell number change was -27.7% and the AC50 [2] was 18.4 µM [falling, partial curve].
In the case of CC(=O)Oc1ccc(Nc2ccccc2)cc1, the cell number change was -8.2% and the AC50 [2] was 1.84 µM [falling, partial curve].
With Cc1cc(C)n(-c2ccc(Cl)c(C(=O)OCC(N)=O)n2)n1 the AC50 [1] was 0.92 µM [rising, partial curve].
For CCSC1=C(C#N)C(c2cccs2)C(C(=O)OC)=C(C)N1 (stereo not given), the cell number change was 17.1%, the AC50 [1] was 3.26 µM [rising, single point] and the AC50 [2] was 29.1 µM [rising, single point].
In the case of Cc1noc(NS(=O)(=O)c2ccc(NC(=O)c3ccc(Cl)c(S(=O)(=O)N(C)c4ccccc4)c3)cc2)c1C, the cell number change was -18.5% and the AC50 [1] was 6.51 µM [falling, single point].
In the case of CCn1c(CSc2nnc(-c3ccc4c(c3)OCO4)o2)nc2cc(S(=O)(=O)N(C)C)ccc21, the cell number change was -6.41% and the AC50 [2] was 0.58 µM [rising, partial curve].
O=c1c2ccccc2ncn1CCCCOc1ccccc1F gave a cell number change of -5.28%.
For O=C(COc1ccc(Br)cc1)NCCCNC(=O)c1ccncc1, the cell number change was 14.4% and the AC50 [2] was 35.5 µM [rising, partial curve, poor fit].
Cc1ccc(OCCCC(=O)Nc2ccc(S(=O)(=O)N3CCOCC3)cc2)cc1 showed a cell number change of -30%.
For O=C(Nc1cc2c(=O)n(-c3ccc(Oc4ccccc4)cc3)ccc2oc1=O)c1ccccc1, the cell number change was 32.9% and the AC50 [1] was 2.31 µM [rising, partial curve, poor fit].
In the case of Cc1ccc2nc(SCC(=O)Nc3cc(C(F)(F)F)ccc3N3CCOCC3)[nH]c2c1, the cell number change was 8.03% and the AC50 [2] was 3.66 µM [rising, single point].
In the case of CCc1nc(SCC(=O)Nc2cc(C)on2)c2c(C)c(C)sc2n1, the cell number change was 9.33% and the AC50 [2] was 0.164 µM [rising, full curve, poor fit].
For O=C(Nc1ccc(O)cc1)c1c(O)c2c([nH]c1=O)CCCC2, the cell number change was 63.4% and the AC50 [2] was 29.1 µM [rising, partial curve].
For CC(=O)N1CCOc2ccc(S(=O)(=O)N3CCC(C(=O)Nc4ccc(C)c(C)c4)CC3)cc21, the AC50 [2] was 29.1 µM [rising, single point].
With COCCCNC(=O)/C(C#N)=C/c1cccc(NC(=O)c2ccccc2Cl)c1 the cell number change was -7.88% and the AC50 [2] was 4.11 µM [falling, partial curve].
With O=C(O)c1ccc(NS(=O)(=O)c2cccc(C(=O)Nc3ccccc3[N+](=O)[O-])c2)cc1 the cell number change was 2.78% and the AC50 [2] was 29.1 µM [falling, single point].
In the case of CC1=CC=CC2=NC(=O)CC(C)(C(=O)N(CC(=O)NC3CCCC3)Cc3ccc(Cl)cc3)N12 (stereo not given), the cell number change was 1.28% and the AC50 [1] was 0.164 µM [falling, full curve, poor fit].
In the case of CCOC(=O)N1CCN(C(=O)CN2C(=O)CC(C)(C)S(=O)(=O)c3ccccc32)CC1, the cell number change was -42.6%, the AC50 [1] was 0.146 µM [falling, full curve, poor fit] and the AC50 [2] was 3.66 µM [falling, full curve].
For Cc1sc(NC(=O)CN(Cc2ccccc2)C(=O)C(C)C)c(C(N)=O)c1C, the cell number change was 21.3%, the AC50 [1] was 0.731 µM [falling, single point] and the AC50 [2] was 0.58 µM [falling, single point].
With CCOc1ccc(NC(=O)C(=O)N/N=C\c2ccc(CNS(=O)(=O)c3ccccc3)o2)cc1 the AC50 [2] was 29.1 µM [falling, single point].
O=c1cc(CN2CCCCC2)nc(C2CC2)[nH]1 showed a cell number change of 153%.
With COc1ccc(C(CNC(=O)c2ccc(OCC3CCCO3)cc2)N2CCOCC2)cc1 (stereo not given) the AC50 [1] was 1.84 µM [rising, partial curve].
With CCOC(=O)c1cc(NC(=O)NC2CCCCC2)c(C)nc1C the cell number change was -18.1% and the AC50 [2] was 6.51 µM [rising, single point].
In the case of CCOc1ccc2[nH]c(=O)c(CN(CCN3CCOCC3)Cc3nnnn3C(C)(C)CC)cc2c1, the cell number change was 9.67% and the AC50 [2] was 29.1 µM [rising, single point].
In the case of COc1ccc(NC(=O)CCOc2ccc(C)cc2)cc1S(=O)(=O)N1CCCCC1, the cell number change was -10% and the AC50 [2] was 1.64 µM [falling, partial curve, poor fit].
In the case of NS(=O)(=O)c1ccc(CCNC(=O)c2cccc(S(=O)(=O)N3CCCC3)c2)cc1, the cell number change was -4.28% and the AC50 [2] was 29.1 µM [falling, single point].
With Cc1cccc(C)c1OCCNC(=O)CCC(=O)c1ccccc1 the cell number change was -1.61% and the AC50 [2] was 2.06 µM [falling, single point].
With CCc1cccc(C)c1NC(=O)COC(=O)c1c2c(nc3ccccc13)/C(=C\c1cccs1)CCC2 the cell number change was -8.31% and the AC50 [2] was 20.6 µM [falling, single point].
With CNc1nnc(-c2cccc(N(C)C)c2)s1 the AC50 [1] was 6.51 µM [rising, single point].
For Cn1c(C(=O)N2CCN(C3CCCCC3)CC2)cc2c(=O)n(C)c3ccccc3c21, the cell number change was 1.15%.
For Cc1ccc(C(C)C)c(OCCCN(C)Cc2ccccc2)c1, the cell number change was -72.1%, the AC50 [1] was 20.6 µM [falling, partial curve] and the AC50 [2] was 16.4 µM [falling, partial curve].
For COc1ccccc1CNc1ncccc1[N+](=O)[O-], the cell number change was 25.9% and the AC50 [2] was 1.3 µM [rising, full curve, poor fit].
Work on O=C(Nc1cccc(Cl)c1)C1COc2ccccc2O1 (stereo not given) yielded a cell number change of -23.1%.
With COC(=O)CN1C(=O)S/C(=C/c2ccc(N3CCCCC3)o2)C1=O the cell number change was -15.3% and the AC50 [2] was 20.6 µM [falling, partial curve, poor fit].
With Nc1nc(N)nc(COc2ccccc2)n1 the cell number change was 8.65% and the AC50 [1] was 0.259 µM [rising, partial curve, poor fit].
For CC(c1ccco1)N(C(=O)c1ccc(C#N)cc1)c1ccccn1 (stereo not given), the cell number change was 2.25%, the AC50 [1] was 4.11 µM [falling, single point] and the AC50 [2] was 18.4 µM [falling, partial curve].
In the case of NC(=O)C(c1ccc(F)cc1)c1ccc(C(=O)c2ccccc2)cc1 (stereo not given), the cell number change was -20.7% and the AC50 [2] was 7.31 µM [falling, single point].
